Reference: PubChem BioAssay AID504834 (National Center for Advancing Translational Sciences (NCATS), 2011)
In all, about 320,000 compounds went through this assay and about 22,000 (6.9%) were called active. Inconclusive means that the source gave no clear call. Such entries were picked first, then a sample of the others. Calls come from the whole dose curve; as a rule, active = well fitted inhibition curve with a large enough effect; inconclusive = small, poorly fitted or top-dose-only effect, or another doubt; inactive = no such curve, though single readings can be large or run the other way. A potency beside an inconclusive call is a rough fit, not a confirmed value.

Assay: Primary qHTS for delayed death inhibitors of the malarial parasite plastid, 96 hour incubation
Conditions: P. falciparum luciferase reporter growth; series mostly up to 28.7 µM
In short: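 Parasite growth measured via integrated firefly luciferase reporter in P. falciparum. Infected erythrocytes at 2% hematocrit, 0.05% parasitemia final were treated 96 hours at 37 C under 5% CO2, and luminescence was read.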
Potency is the fitted concentration of half-maximal effect.

SMILES	Potency
Fc1ccccc1Cc1noc(CN2CCCC(CN3CCOCC3)C2)n1 (configuration not stated)	inconclusive: 18.5 µM [inhibitor, single point]
COc1ccc(C(=O)NC(=S)N2CCNC(=O)C2)cc1Br	inactive
COC(=O)c1cc(S(=O)(=O)NCC2CCN(CCc3ccc(OC)cc3)CC2)cn1C	inactive
O=C(O)CCC(CNS(=O)(=O)c1ccccc1)C(F)(F)F (configuration not stated)	inconclusive: 0.657 µM [inhibitor, full curve, poor fit]
COc1ccccc1N(C(=O)Cn1nnc(-c2ccc(C)o2)n1)C(C(=O)NC1CCCC1)c1ccncc1 (configuration not stated)	inconclusive: 3.7 µM [inhibitor, partial curve]
COc1cccc(N2CCN(S(=O)(=O)c3cc4c(cc3Cl)NC(=O)CO4)CC2)c1	inconclusive: 18.5 µM [inhibitor, single point]
COCCNC(=O)c1onc(CSc2cccc(C)c2)c1C(=O)O	inconclusive: 0.0037 µM [inhibitor, full curve, poor fit]
O=C(CCCOc1ccccc1)N1CCN(c2ccccn2)CC1	inconclusive: 18.5 µM [inhibitor, single point]
CCOC(=O)CSc1nc2cc(C(=O)OC)ccc2c(=O)n1CCN1CCOCC1	inconclusive: 14.7 µM [inhibitor, single point]
COc1ccc(CCn2c(=N)c(C(=O)NC3CCCC3)cc3c(=O)n4cccc(C)c4nc32)cc1	active: 0.522 µM
COC(=O)c1sccc1S(=O)(=O)Nc1ccc(Cl)cc1	inconclusive: 0.0029 µM [inhibitor, full curve, poor fit]
CCN(CC)S(=O)(=O)c1ccc(OC)c(NC(=O)CSc2cc(C)ccc2C)c1	inconclusive: 13.1 µM [inhibitor, single point]
O=C(NC1CCC(=O)N(CCSc2ccccc2)CC1)OCc1ccccc1 (configuration not stated)	inconclusive: 14.7 µM [inhibitor, partial curve, poor fit]
NC(=O)C1CCN(c2nc(-c3cccc(Cl)c3)cs2)CC1	inconclusive: 18.5 µM [inhibitor, single point]
CC(C)(C)C(=O)OCc1cn(-c2ccc(Cl)cc2)nn1	inactive
Cc1ccc(C)c(N(CC(=O)NC2CCCC2)C(=O)c2oc(C(C)(C)C)cc2C)c1	inconclusive: 11.7 µM [inhibitor, partial curve]
CCN1CCCC1CNC(=O)CCc1nnc(CCC2CCCCC2)o1 (configuration not stated)	inactive
CC(C)Oc1ccc(CCNC(=O)C2CCC(=O)N(Cc3cccc(F)c3)C2)cc1 (configuration not stated)	inconclusive: 11.7 µM [inhibitor, partial curve]
CCS(=O)(=O)N1CCN(c2ccc(C(=O)NC3C4CC5CC(C4)CC3C5)cc2[N+](=O)[O-])CC1 (configuration not stated)	inconclusive: 18.5 µM [inhibitor, single point]
CC1SC(C)C(=O)N(CC(=O)NCc2ccc(F)cc2)C1=O (configuration not stated)	inactive
Cc1cccc(C)c1Nc1nnc(SCC(=O)NCc2cccs2)s1	inconclusive: 7.38 µM [inhibitor, partial curve, poor fit]

Entries listed so far with a furan ring, fused or not (two):
SMILES	Potency
COc1ccccc1N(C(=O)Cn1nnc(-c2ccc(C)o2)n1)C(C(=O)NC1CCCC1)c1ccncc1 (configuration not stated)	inconclusive: 3.7 µM [inhibitor, partial curve]
Cc1ccc(C)c(N(CC(=O)NC2CCCC2)C(=O)c2oc(C(C)(C)C)cc2C)c1	inconclusive: 11.7 µM [inhibitor, partial curve]

Later entries

SMILES	Potency
CCOC(=O)c1ccccc1NC(=O)c1cn(-c2ccc(OC)cc2)c(=O)c2ccccc12	active: 2.94 µM
NS(=O)(=O)c1ccc(CNC(=O)CSc2nc3ccc(Cl)cc3[nH]2)cc1	inconclusive: 18.5 µM [inhibitor, single point]
Cc1c(N=Cc2nc3ccccc3[nH]2)c(=O)n(-c2ccccc2)n1C	inactive
O=C(NCc1ccccc1Cl)C(=O)c1c[nH]c2ccccc12	inactive
CCCN(CCC)CCCNC(=S)Nc1ccc2nc(N3CCCC3)cc(C)c2c1	inconclusive: 1.47 µM [inhibitor, full curve, poor fit]
COc1ccc(CCNC(=O)c2noc3c2CCCC3)cc1OC	inconclusive: 2.08 µM [inhibitor, partial curve, poor fit]
CC(C)(C)c1nc(NCCO)c2nnn(Cc3ccccc3)c2n1	inconclusive: 10.4 µM [inhibitor, partial curve, poor fit]
Cn1c(=O)c2c(SCC(=O)Nc3ccccc3F)nc(-c3ccccc3F)nc2n(C)c1=O	inactive
COc1ccc(-n2c(Cc3ccccc3)nnc2SCC(=O)N2CCCc3ccccc32)cc1	inconclusive: 9.28 µM [inhibitor, single point]
COc1ccc(S(=O)(=O)NNC(=O)Cc2csc(C)n2)cc1[N+](=O)[O-]	inactive
O=C(c1ccc(OC2CCN(Cc3ccccc3C(F)(F)F)CC2)cc1)N1CCCCC1	active: 3.29 µM
COc1ccc(NC(=O)CCCCCN2C(=O)c3cccc([N+](=O)[O-])c3C2=O)c(OC)c1	inconclusive: 0.657 µM [inhibitor, full curve, poor fit]
Cc1c(Cl)cccc1NC(=S)N(Cc1cccs1)C1CCCC1	inconclusive: 2.94 µM [inhibitor, full curve, poor fit]
Nc1cc(-c2nn[nH]n2)ccc1F	inactive
C/C(CC(C)C)=N\NS(=O)(=O)c1ccc(C)c([N+](=O)[O-])c1	inconclusive: 4.15 µM [inhibitor, single point]
C=CCN1c2ccccc2[C@]23C[C@@H](C(=O)OC)N(C(=O)c4cccs4)C2=NC(C(=O)OC)=C(C(=O)OC)[C@H]13	inconclusive: 18.5 µM [inhibitor, partial curve, poor fit]
C=C[C@@H]1c2ccccc2N(S(=O)(=O)c2ccc(C)cc2)[C@H](c2ccc(C(F)(F)F)cc2)C1(C#N)C#N	inconclusive: 1.47 µM [inhibitor, partial curve, poor fit]
CC(C(=O)Nc1ccc(C#N)cc1)N1CCN(C(=O)C2CC2)CC1 (configuration not stated)	inactive
Cc1ccc(OCC(=O)Nc2ccc(NC(=O)c3ccco3)cc2)c(C)c1	inconclusive: 1.04 µM [inhibitor, full curve]
C#CC(CC)(CC)NC(=O)c1cc(S(=O)(=O)N2CCCCC2)ccc1N1CCOCC1	inconclusive: 7.38 µM [inhibitor, partial curve]
Cc1nnc(N2C(=O)C(=O)/C(=C(/O)c3ccc4c(c3)OCCO4)C2c2ccc([N+](=O)[O-])cc2)s1 (configuration not stated)	inconclusive: 16.5 µM [inhibitor, single point]
